# Measurements as given in PubChem BioAssay AID1487 (National Center for Advancing Translational Sciences (NCATS), 2009).
# The whole screen tested about 200,000 compounds, of which about 25 (0.01%) were called active. The shares of active, inactive and inconclusive entries below differ from those in the screen. Calls come from the whole dose curve; as a rule, active = well fitted inhibition curve with a large enough effect in the signal ratio, with a control signal flat (not every such curve was filed as active); inconclusive = small, poorly fitted or top-dose-only effect, or effect the other way, or a change in a side signal; inactive = flat fitted curve, though single readings scatter; the % refers to the signal ratio. A potency beside an inconclusive call is a rough fit, not a confirmed value.
# Assay: qHTS Assay for Modulators of Lamin A Splicing
# Details: HeLa LMNA splicing GFP/RFP minigene ratio, 48 h; ratio change, negative = inhibition: at 46.1 µM (top of the series) unless noted
# Method in brief: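 Read-out is the ratio of GFP to DsRed2 object intensity, acquired by 488 nm laser-scanning cytometry on HeLa lamin A-EGFP minigene reporter cells. Compound incubation 48 hrs at 37 °C in Opti-MEM with 2% FBS; DMSO 0.5% final.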
# % is set by controls: 0 for no effect and ±100 for the full control effect; potency is the fitted concentration of half-maximal effect.
Compound,"ratio change, negative = inhibition",Potency
O=C(Nc1ccccc1Cl)c1ccc2nsnc2c1,inconclusive: 20.5% [at 46 µM],
CC1(C)Cc2ccccc2-c2c1c(=O)n(Cc1ccccc1)c1nnnn21,,"inconclusive: 35.5 µM [fluorescent, single point]"
COc1cc(NC(=O)COc2cccc(OC)c2)cc(OC)c1,inconclusive: 18.2%,
COc1nc(NCCC2=CCCCC2)nc(OC)n1,inconclusive: 8.73%,
O=C(c1ccc2c(c1)N(Cc1cccc(Cl)c1)C(=O)c1ccccc1S2(=O)=O)N1CCc2ccccc21,inconclusive: 4.91% [at 46 µM],
CN(C(=O)COc1cc(=O)n(C)c2ccccc12)c1ccc(Cl)cc1,inactive,
N=C1SCC(=O)N1c1ncc(Cc2cccc(Cl)c2)s1,inconclusive: -53.8% [at 46 µM],
Cc1cccc(-n2nc(C)c3c2NC2=C(C(=O)CCC2)C3c2ccccn2)c1 (configuration not stated),,"inconclusive: 0.0355 µM [activator, full curve, poor fit]"
O=C(NCc1cccnc1)c1ccc(-c2cc3ccccc3oc2=O)cc1,inconclusive: 5.61% [at 46 µM],
O=C(NN=C1CCN(Cc2ccccc2)CC1)c1cc2ccccc2cc1O,inconclusive: -13.9%,
Oc1c(Cl)cc(Cl)c2cccnc12,,"inconclusive: 3.98 µM [cytotoxic, single point]"
c1ccc(-c2ccc(C(c3ccccc3)n3ccnc3)cc2)cc1 (configuration not stated),inconclusive: -49%,
COC(=O)c1ccccc1NC(=O)CSc1n[nH]c(C)n1,inactive,
O=C(CSc1nnc(SCc2ccccc2)s1)N/N=C/C=C/c1ccco1,inactive,
COc1ccccc1N1CCN(CCCNc2c(C)c(=O)n(C)c(=O)n2C)CC1,inconclusive: -12.1%,
Cc1ccc(-c2nc(CSc3nc4ccccc4c(=O)n3CCO)cs2)cc1,inconclusive: -36.7%,
CC(=O)c1ccc(NC(=O)CSc2nnc(-c3ccncc3)n2-c2ccccc2)cc1,inconclusive: 8.5% [at 46 µM],
CCOC(=O)c1nn(-c2ccccc2)c(C#N)c1NC(=O)c1nn(CC)cc1Br,inconclusive: 5.78%,
Cc1cc(C)n2c(Nc3ccc4c(c3)OCCO4)c(-c3ccccc3)nc2n1,inconclusive: 33.1%,
N#Cc1cnn2ccc(-c3cc(N4CCOCC4)ccc3[N+](=O)[O-])nc12,inconclusive: 0.499% [at 46 µM],
COc1ccc(CNC(=O)COC(=O)c2n[nH]c3ccccc23)cc1,inconclusive: 20.7%,

# Four compounds picked at random from those above:
Compound,"ratio change, negative = inhibition",Potency
COc1ccccc1N1CCN(CCCNc2c(C)c(=O)n(C)c(=O)n2C)CC1,inconclusive: -12.1%,
N#Cc1cnn2ccc(-c3cc(N4CCOCC4)ccc3[N+](=O)[O-])nc12,inconclusive: 0.499% [at 46 µM],
CC(=O)c1ccc(NC(=O)CSc2nnc(-c3ccncc3)n2-c2ccccc2)cc1,inconclusive: 8.5% [at 46 µM],
O=C(NN=C1CCN(Cc2ccccc2)CC1)c1cc2ccccc2cc1O,inconclusive: -13.9%,

# Following part:

Compound,"ratio change, negative = inhibition",Potency
O=C(C1CC1)N1CCc2cc(S(=O)(=O)N(CCO)Cc3ccccc3)ccc21,,"inconclusive: 35.5 µM [falling, single point]"
O=C(CCCCCN1C(=O)c2ccccc2C1=O)Nc1ccc2c(c1)OCCO2,inactive,
Nn1cc(-c2ccccc2)nc1SCC(=O)N1CCN(S(=O)(=O)c2ccc3ccccc3c2)CC1,,"inconclusive: 35.5 µM [falling, single point]"
CCc1ccc(N2C(=O)CC(N3CCN(Cc4ccc5c(c4)OCO5)CC3)C2=O)cc1 (configuration not stated),inconclusive: 3.98% [at 46 µM],
Cc1cccc(/C=C/C(=O)c2cc(Br)ccc(=O)c2O)c1,,"inconclusive: 20 µM [falling, partial curve]"
O=[N+]([O-])c1ccc(S(=O)(=O)Nc2ccc(-c3csc(-c4ccccc4)n3)cc2)cc1,,"inconclusive: 35.5 µM [cytotoxic, single point]"
CCc1sc(C(=O)N2CCc3ccccc32)cc1C,inactive,
Cc1ccc(S(=O)(=O)Nc2ccc(O)c(Sc3ncn[nH]3)c2)cc1,inactive,
COc1ccc(Oc2ncc3nc(-c4ccc(Cl)cc4)c(=O)n(C[C@H]4CCCO4)c3n2)cc1,,"inconclusive: 10 µM [inhibitor, partial curve]"
CC1=NS(=O)(=O)c2cc(Cl)ccc2N1,,"inconclusive: 0.158 µM [inhibitor, full curve, poor fit]"
O=c1c2cccc3c2c(nn1CN1CCOCC1)-c1ccccc1-3,inconclusive: -17.2%,
COC(=O)c1cc(OC)c(OC)cc1NCC(=O)Nc1cccc(C(F)(F)F)c1,,"inconclusive: 20 µM [falling, single point]"
CN(C)CCCNC(=O)c1cc(Br)ccc1O,inactive,
CCOc1ccc(OCC)c(NS(=O)(=O)c2ccc3c(c2)n(C)c(=O)c(=O)n3C)c1,inconclusive: 26.8%,
O=C(Nc1nc2ccc(S(=O)(=O)N3CCCCC3)cc2s1)C1CCCO1 (configuration not stated),inactive,
Cn1c(=O)cc(OCCCC(=O)NCc2ccco2)c2ccccc21,,"inconclusive: 12.6 µM [falling, single point]"
CC(C)c1ccc(NC(=O)CN2C(=O)C3(SCC(=O)N3c3ccc(F)cc3)c3ccccc32)cc1 (configuration not stated),inconclusive: 11% [at 46 µM],
O=C(NCc1ccccn1)c1nc(-c2ccc(C(F)(F)F)cc2)no1,,"inconclusive: 0.0891 µM [inhibitor, full curve, poor fit]"
Cc1ccc2c(c1)/C(=N/OC(=O)c1ccc(F)cc1)CCS2,inactive,
CC(C)CC(NC(=O)c1ccc(Cl)cc1)C(=O)OCC(=O)c1ccc2c(c1)NC(=O)CO2 (configuration not stated),,"inconclusive: 22.4 µM [cytotoxic, single point]"
COC(=O)c1ccc(CSc2nnc(C)n2N)o1,inconclusive: -5.35%,

Compound,"ratio change, negative = inhibition",Potency
COc1cc(OC)c(NC(=O)CCc2nc(C3=CCN(Cc4cccc(Cl)c4)CC3)no2)cc1Cl,inactive,
NC(=S)Nc1cc2ccccc2c2ccccc12,inconclusive: 30.9%,
C[C@]1(OC(=O)/C=C\c2ccccc2)C[C@@H](O)[C@@]2(O)C=CO[C@@H](O[C@H]3O[C@@H](CO)[C@@H](O)[C@@H](O)[C@@H]3O)[C@H]21,inconclusive: -10.5%,
O=C1CN(c2ccccc2Cl)C(=O)CN1c1ccccc1Cl,inactive,
COc1cccc(NC(=O)C(C#N)Cc2ccncc2)c1 (configuration not stated),inactive,
Cc1cc(C)c(S(=O)(=O)NCC(c2ccco2)S(=O)(=O)c2ccccc2)c(C)c1 (configuration not stated),inconclusive: 19.9% [at 46 µM],
COc1ccc(NC(=O)COCc2cc(-c3ccco3)on2)cc1Cl,inactive,
Cc1ccc(CN=Cc2[nH]c3ccc(Br)c(Cl)c3c2O)cc1,inactive,
COc1ccccc1C(=O)O/N=C(/c1ccncc1)c1ccc([N+](=O)[O-])cc1,,"inconclusive: 0.398 µM [activator, full curve, poor fit]"
CC(C)C(NC(=O)CSc1ccc(Cl)cc1)C(C)C,inactive,
COC(=O)c1ccc(-n2cncn2)c(F)c1,inactive,
CCC(=O)N1CCc2cc(Br)cc(S(=O)(=O)NCCc3ccc(C)cc3)c21,inactive,
Cc1nc([N+](=O)[O-])c(Br)n1CC(=O)c1ccc(Br)cc1,inconclusive: -24.8%,
Cc1ccc(NC(=O)Cn2cncc2-c2ccc([N+](=O)[O-])cc2)cc1C,inconclusive: 35.4%,
CC(=O)NC(=S)Nc1ccccc1N1CCN(C(=O)c2ccccc2)CC1,inconclusive: -31.2% [at 46 µM],
N#CC1=C(N)Oc2[nH]c(=S)[nH]c(=O)c2C12C(=O)Nc1ccccc12 (configuration not stated),inconclusive: -42.4% [at 9.22 µM],
Cc1ccc(NCC(=O)NNC2=NCCC2)c(C)c1,inconclusive: -9.75%,
CN(C(=O)COc1ccccc1C(=O)NCCOc1ccccc1)c1ccccc1,inconclusive: -22.2%,
COCCNC(=O)CSc1nnc2c(Cl)cc(Cl)cn12,inconclusive: 10.3%,
CCCCCCSC1=C(C#N)C(c2ccc(O)cc2)CC(=O)N1 (configuration not stated),,"inconclusive: 35.5 µM [falling, single point]"
C/C(=N\NC(=O)COc1ccc(C)cc1Br)c1cc([N+](=O)[O-])cs1,inactive,

Compound,"ratio change, negative = inhibition",Potency
CSc1sc(C)cc1/C=N/O,inactive,
Cc1ccc2sc(N3CCN(C(=O)C4COc5ccccc5O4)CC3)nc2c1C (configuration not stated),inconclusive: -9.94% [at 46 µM],
COc1ccc(NC(=O)CCC(=O)c2ccc(-c3ccccc3)cc2)cc1,inactive,
Cn1c(=O)n(CCN2CCOCC2)c(=O)c2c1nc1n2CCN1c1ccc(Oc2ccccc2)cc1,inconclusive: 9.62%,
CCc1ccc(-n2c(C)nc3cc(C(=O)NCc4cccnc4)ccc32)cc1,inactive,
COC(=O)CSc1nc2ccc(NC(=O)CSc3nnnn3Cc3ccccc3)cc2s1,inactive,
COc1ccccc1CNC(=O)c1c2c(nc3ccccc13)C(=O)N(C1CCCCC1)C2,,"inconclusive: 0.562 µM [activator, full curve, poor fit]"
Cn1c(=O)cc(OCCCC(=O)Nc2ccccn2)c2ccccc21,inconclusive: -33.7%,
NC(=O)c1cnn(Cc2ccc(Cl)cc2)c1N,inactive,
CCOC(=O)c1c(C)c(C(=O)N2CCc3ccccc3C2)c(C)n1CC,inconclusive: -10.5%,
O=C(Cc1ccc(Cl)c(Cl)c1)Nc1cccc2ncccc12,inconclusive: -17.4% [at 46 µM],
CCOC(=O)c1ccc(NC(=S)N(Cc2cccnc2)Cc2ccco2)cc1,inconclusive: -7.75% [at 46 µM],
O=C(Nc1ccc(Cl)cc1Cl)c1cccc(N2C(=O)C=CC2=O)c1,inactive,
O=C1COc2ccccc2N1Cc1ccccc1Cl,inconclusive: 37.5%,
Cc1sc(NC(=O)c2ccccc2F)c(CN2CCCCC2)c1C,inactive,
CCOc1ccccc1CNC(=O)CC(C)n1ccc(C)n1 (configuration not stated),inactive,
Cc1cc2oc(C(=O)Nc3cccc(-c4nc5ccccc5o4)c3)c(C)c2cc1Cl,inactive,
C=C(C)C(=O)OC1(C(F)(F)F)Oc2cc(C)ccc2NC1=O (configuration not stated),inconclusive: 44.9%,
COc1ccc(NC(=O)Cn2nnc(C(=O)NCCc3ccc(OC)c(OC)c3)c2N)cc1,inconclusive: 1.22%,
